Test results from US20250228861A1, “Cancer Treatments Using MTA-Cooperative PRMT5 Inhibitors” (AMGEN INC., priority 2022, published 2025).
Read-outs that look alike come from different tables or passages of the source.

Tests used:
A549 cells = assay: Combination with pemetrexed, CellTiter-Glo viability, Fa and CalcuSyn CI; details: Compound B 0.1535 μM fixed + Pemetrexed 0.087792 μM, 6 days;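 also: fa derived from raw CellTiter-Glo luminescence, CI computed by CalcuSyn from drug concentrations and Fa, with values below 0.9 meaning synergism and 0.9–1.1 nearly additive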
NSCLC (H292) cell line = details: H292 cells; nuclear counts over 10 days
MIAPACA2T2 cells = details: 6 days
PSN1 cells = details: 6 days
[1] = Compound B 0.4374 μM fixed + 5-FU 0.664052 μM
[2] = Compound B 0.4374 μM fixed + 5-FU 0.929672 μM
[3] = Compound B 0.4374 μM fixed + 5-FU 1.30154 μM
[4] = Compound B 0.4374 μM fixed + 5-FU 1.82216 μM
[5] = Compound B 0.4374 μM fixed + 5-FU 3.57143 μM
[6] = Compound B 0.4374 μM fixed + 5-FU 5 μM
[7] = Compound B 0.0202 μM fixed + 5-FU 0.357628 μM
[8] = Compound B 0.0202 μM fixed + 5-FU 0.572205 μM
[9] = Compound B 0.0202 μM fixed + 5-FU 0.915527 μM
[10] = Compound B 0.0202 μM fixed + 5-FU 1.46484 μM
[11] = Compound B 0.0202 μM fixed + 5-FU 2.34375 μM
[12] = Compound B 0.0202 μM fixed + 5-FU 3.75 μM
[13] = Compound B 0.0202 μM fixed + 5-FU 6 μM

Cc1cc2cc(C(=O)N(Cc3ccc(C(F)(F)F)cn3)[C@@H](C)c3ncccn3)ccc2nc1N [Compound B]
Computed CI value (A549 cells): 1.06
anti-tumor cell growth activity of combination with carboplatin (NSCLC (H292) cell line): significant anti-tumor cell growth activity versus either paclitaxel or carboplatin alone
anti-tumor cell growth activity of combination with paclitaxel (NSCLC (H292) cell line): significant anti-tumor cell growth activity versus either paclitaxel or carboplatin alone
Combination Fa (MIAPACA2T2 cells; [1]): 0.746
Computed CI value (MIAPACA2T2 cells; [1]): 0.386
Combination Fa (MIAPACA2T2 cells; [2]): 0.799
Computed CI value (MIAPACA2T2 cells; [2]): 0.347
Combination Fa (MIAPACA2T2 cells; [3]): 0.818
Computed CI value (MIAPACA2T2 cells; [3]): 0.404
Combination Fa (MIAPACA2T2 cells; [4]): 0.856
Computed CI value (MIAPACA2T2 cells; [4]): 0.428
Computed CI value (MIAPACA2T2 cells; Compound B 0.4374 μM fixed + 5-FU 2.55102 μM): 0.48
Combination Fa (MIAPACA2T2 cells; [5]): 0.911
Computed CI value (MIAPACA2T2 cells; [5]): 0.54
Combination Fa (MIAPACA2T2 cells; [6]): 0.918
Computed CI value (MIAPACA2T2 cells; [6]): 0.704
Combination Fa (PSN1 cells; [7]): 0.5061
Computed CI value (PSN1 cells; [7]): 0.932
Combination Fa (PSN1 cells; [8]): 0.453
Computed CI value (PSN1 cells; [8]): 1.299
Combination Fa (PSN1 cells; [9]): 0.5174
Computed CI value (PSN1 cells; [9]): 1.305
Combination Fa (PSN1 cells; [10]): 0.6551
Computed CI value (PSN1 cells; [10]): 1.047
Combination Fa (PSN1 cells; [11]): 0.7273
Computed CI value (PSN1 cells; [11]): 1.056
Combination Fa (PSN1 cells; [12]): 0.8588
Computed CI value (PSN1 cells; [12]): 0.717
Combination Fa (PSN1 cells; [13]): 0.9075
Computed CI value (PSN1 cells; [13]): 0.674
